Experimental data taken from publication PMC11076679.

Molecular target: T1, synthetic peptide corresponding to the nonphosphorylated ITIM of Ly49Q (…)
T1 sequence (peptide, conjugated to SulfoLink resin): CGGMSEQEVTYSTVRFHK
Experiment: affinity purification with mass spectrometry; peptides conjugated to SulfoLink resin, incubated with Raw264.7 lysates (50 mM Tris-HCl pH 7.5, 1 mM EDTA, 10% glycerol, 150 mM NaCl, 1% NP-40) 1 h at 4°C; SDS-PAGE, silver staining, bands specific for the phosphorylated peptide analysed by LC-MS/MS; only the target purified

binding: no binding
Substance: Shc (endogenous) (mouse (endogenous in RAW264.7))

No constants are given. Whether binding was seen depends on the method and setting. Binding seen in cells or lysates may run through a third protein. A yes stands for co-enrichment or nearness to the bait. Other partners may have been found. A no says only that the protein was not detected with the bait.
